# Results reported in patent publication US20140303188A1, “Substituted Cyclopenta Pyrimidine Bicyclic Compounds Having Antitmitotic And/Or Antitumor Activity And Methods Of Use Thereof” (DUQUESNE UNIVERSITY OF THE HOLY SPIRIT, priority 2008, published 2014).
# Structures can show the parent of a compound that is named as a salt.
# Assay: NCI COMPARE analysis (TGI correlation)
# Conditions: STANDARD_AGENTS_TGI; 2 days
row,SMILES,Correlation (TGI endpoint) with seed S747157 (AAG1)
1,COc1cc2cc(c1Cl)N(C)C(=O)C[C@H](OC(=O)[C@H](C)N(C)C(C)=O)[C@]1(C)O[C@H]1[C@H](C)[C@@H]1C[C@@](O)(NC(=O)O1)[C@H](OC)/C=C/C=C(\C)C2 [maytansine],0.494
2,CC[C@]1(O)C[C@H]2CN(CCc3c([nH]c4ccccc34)[C@@](C(=O)OC)(c3cc4c(cc3OC)N(C=O)[C@H]3[C@@](O)(C(=O)OC)[C@H](OC(C)=O)[C@]5(CC)C=CCN6CC[C@]43[C@@H]65)C2)C1 [vincristine sulfate],0.600
